The target in assay [1] is Cka1-4xFLAG (CK2 catalytic subunit Cka1 of Cryptococcus neoformans) (Cryptococcus neoformans) (UniProt J9VNH4). Description: co-IP; whole cell lysates of co-tagged C. neoformans strains; lysis buffer 50 mM Tris-Cl pH 7.5, 1% sodium deoxycholate, 5 mM NaF, 0.1% SDS, 1% Triton X-100; anti-FLAG antibody overnight at 4°C, protein G Sepharose 6 h, three washes; blot with anti-HA.

Protein sequences, listed by entry. Tags and fused reporters are not part of them. Lines headed by an entry give the natural chain unless they say otherwise; changes in a name come on top.
UniProt J9VNH4: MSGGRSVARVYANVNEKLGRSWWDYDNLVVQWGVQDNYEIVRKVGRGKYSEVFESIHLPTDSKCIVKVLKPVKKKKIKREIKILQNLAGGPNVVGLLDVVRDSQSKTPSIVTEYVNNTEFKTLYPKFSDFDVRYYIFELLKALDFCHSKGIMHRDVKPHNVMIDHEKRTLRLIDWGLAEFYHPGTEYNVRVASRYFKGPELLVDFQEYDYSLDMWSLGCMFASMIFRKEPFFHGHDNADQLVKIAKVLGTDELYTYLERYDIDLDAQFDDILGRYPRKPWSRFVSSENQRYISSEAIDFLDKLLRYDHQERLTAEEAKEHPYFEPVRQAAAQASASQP
UniProt J9VQR1: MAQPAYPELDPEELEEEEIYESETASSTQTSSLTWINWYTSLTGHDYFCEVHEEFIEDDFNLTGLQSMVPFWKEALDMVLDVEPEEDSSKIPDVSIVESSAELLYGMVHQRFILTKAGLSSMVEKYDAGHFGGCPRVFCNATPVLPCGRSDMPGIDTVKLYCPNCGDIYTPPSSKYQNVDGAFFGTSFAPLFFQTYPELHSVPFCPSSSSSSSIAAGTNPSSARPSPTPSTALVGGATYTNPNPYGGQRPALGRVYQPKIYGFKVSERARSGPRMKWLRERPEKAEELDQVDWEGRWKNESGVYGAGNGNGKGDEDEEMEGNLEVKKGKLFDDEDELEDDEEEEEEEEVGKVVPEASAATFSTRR
UniProt J9VM18: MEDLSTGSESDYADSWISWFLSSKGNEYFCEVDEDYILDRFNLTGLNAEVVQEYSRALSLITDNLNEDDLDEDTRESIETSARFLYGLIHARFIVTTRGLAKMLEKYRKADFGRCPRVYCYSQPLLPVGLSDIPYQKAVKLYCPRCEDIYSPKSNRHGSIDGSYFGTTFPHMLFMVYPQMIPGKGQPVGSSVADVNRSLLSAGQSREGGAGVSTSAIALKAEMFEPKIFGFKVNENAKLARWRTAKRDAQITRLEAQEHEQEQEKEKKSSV

The target of assay [2] is Ckb1-4xFLAG (CK2 regulatory subunit Ckb1 of Cryptococcus neoformans) (Cryptococcus neoformans) (UniProt J9VQR1). The assay is described as above.

No constants are given. Whether binding was seen depends on the method and setting. In cells and extracts the contact can be indirect. Binding can be weak; no strength is given.

“Ckb1-6xHA (CK2 regulatory subunit Ckb1 of Cryptococcus neoformans) (from UniProt J9VQR1)”: the binding result in assay [1] is given as “binds”. For the substance “Ckb2-6xHA (CK2 regulatory subunit Ckb2 of Cryptococcus neoformans) (from UniProt J9VM18)”, the binding result in assay [1] and in assay [2] was “binds” each time.

For the origin of these results see publication PMC10865844.
